Measured values reported in PubChem BioAssay AID1347426 (Functional Genomics Laboratory (NCATS/FGL), 2020).
About 1,400 (4.5%) of roughly 31,000 sequences were called active.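 Rule for the calls: active = median seed-adjusted z-score above 1 or below -1; inactive = the rest.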 This is one part of the list.

Test: Novel Modifiers of Survival Motor Neuron (SMN) Protein: Gene Identification via Genome-wide siRNA Screen;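 note: luminescence tracks full-length SMN protein made from the SMN2 reporter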
Conditions: HEK293T SMN2-luciferase reporter, siRNA knockdown, 72 h; actives lie on both sides
Procedure, shortened: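 HEK293T cells stably expressing an SMN2 splicing/cDNA-luciferase reporter were reverse-transfected with a druggable-genome siRNA library and read by luminescence at 72 hours; hits defined by MAD score above 1.0 or below -1.0.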

Row | Sequence | median seed-adjusted z-score
1 | GGACUGUAAAGGACAUAUUTT against TRPC3 | inactive: -0.0856
2 | GGUUGACCGUGGAGGUAGATT against KRT18 | inactive: 0.558
3 | GGUCCAGAGCGACUUCAUGTT against POU3F3 | inactive: -0.366
4 | GGAGUUUAUCUAUACAGCATT against HAL | inactive: 0
5 | ACACUGACCUGUUCGAGUATT against SV2A | inactive: 0.138
6 | GAAGGAAUGAAAUCCGGAATT against TRIM8 | inactive: -0.296
7 | GGAAGACUAGGAAUCGGAATT against NYX | inactive: 0.0685
8 | GCAAUAUUCAUGUUACCAATT against CDH24 | inactive: 0.31
9 | CCAAAUACCAGAUACUGUUTT against VIPR2 | inactive: 0.706
10 | CACCAACUAAUGUUACAAUTT against IFNGR1 | inactive: -0.279
11 | GUGGUGAGAUUCUACCGUATT against IQGAP3 | inactive: -0.183
12 | GGGUCCAUUCCUCACUAUATT against KRTAP5-7 | inactive: -0.279
13 | UGCUGGUGCUCGUCCUCUATT against OPN3 | inactive: -0.916
14 | GCACAACGGCAACUAUACATT against DSCAML1 | inactive: 0.237
15 | GCAAGACUGUGAUUCUGGUTT against RBM19 | inactive: 0.204
16 | AAAGCUGGAUGGUACUCCATT against DNAL1 | inactive: 0.866
17 | GGACAAAACUCCUCUCUAUTT against MED27 | active: -1.62
18 | GCAUCGUGCUGAAGUAUGATT against NSUN2 | inactive: -0.707
19 | CCACUAUGGUUACAGCACUTT against ATP1B2 | inactive: -0.185
20 | GCACAUGACUCAGAAGGAATT against WDFY3 | inactive: -0.12
21 | GCUUAUGCAUCAUAUGAUATT against ANGPTL5 | inactive: 0
22 | ACAUCAAGGCGCAUGUGAATT against IL10 | inactive: 0.0967
23 | GCGAUGACAUUGACCUAGATT against OPTC | inactive: 0.0953

3 consecutive records out of the list so far:
Row | Sequence | median seed-adjusted z-score
6 | GAAGGAAUGAAAUCCGGAATT against TRIM8 | inactive: -0.296
7 | GGAAGACUAGGAAUCGGAATT against NYX | inactive: 0.0685
8 | GCAAUAUUCAUGUUACCAATT against CDH24 | inactive: 0.31

Continuation:

Row | Sequence | median seed-adjusted z-score
24 | GAUCUUGUCGAAUAGAGCATT against HOXD10 | inactive: -0.374
25 | CAGGGUCGAUUUAGAGGAATT against POLR3A | inactive: 0.395
26 | GGUCAUUCAGUACAUGAGATT against RIOK1 | inactive: 0.0528
27 | CACCUACUCUGACAACCAATT against HSPA1L | active: -1.27
28 | GGAUGGUCAUCUAUUUCUUTT against MMD2 | inactive: -0.0908
29 | CGAAUUAGCUGAGGAGAUATT against SLC17A8 | inactive: -0.332
30 | GCCUCAGUCUUUGCAGUCUTT against CDCP2 | inactive: 0.0708
31 | GCUGCGUCAUUUUCGAAAATT against MOXD1 | inactive: -0.162
32 | CGAUUACGCUUCAGAGAUATT against PTP4A2 | active: -1.45
33 | GGACAGCUACGUGAAGAUUTT against PAK6 | inactive: -0.57
34 | GCACUUGUAUAAUCAGACUTT against MRLC2 | inactive: -0.492
35 | GUCACGUACUCGCUGCUGATT against SMAD6 | inactive: -0.167
36 | CAUUAGUACUUCGAUCUAUTT against PHCA | inactive: 0.0568
37 | GAGCUGACCUUAGGACCGATT against CALML3 | inactive: 0
38 | CGAAGAUUAGUACAAGUCUTT against LCP1 | inactive: -0.386
39 | CAAUCGUCAUAAUGUCUAUTT against A2M | active: -1.96
40 | GCAGAGAUCUUUGUAGUCUTT against FTSJ3 | inactive: 0.437
41 | CGAGUUCCGUCCCUACCAATT against COX6A2 | inactive: 0.714
42 | GAUGGAAACCGUAAUCCUATT against P4HA1 | inactive: -0.293
43 | AGUUAGGCACAGUCAGACATT against POLD4 | inactive: 0.225
44 | CAGCGUACCCGAUACCUUATT against SIRPD | inactive: -0.257
45 | CGAGGAUUCAAGCUGAACATT against ARL2 | inactive: 0.0301
46 | GGCACUCAGCGCAAGAAGATT against TIGD5 | inactive: 0

Row | Sequence | median seed-adjusted z-score
47 | GCGCAUUCCUUUGCAAGCATT against AURKA | inactive: -0.108
48 | GGACUGGAUUGAAAACCAUTT against KALRN | inactive: 0.305
49 | GCGGAUACAAUGUGACGUATT against L1CAM | inactive: 0
50 | GGAGUUUGCAGACAACCGATT against WNK3 | inactive: -0.466
51 | CACCACUAAUGUCAACAAUTT against LPAR4 | inactive: -0.321
52 | CCUCCAGCGAUGCUUCACATT against TIRAP | inactive: -0.431
53 | AGGCCGUGUUCGCAGAGUUTT against AQP5 | inactive: -0.116
54 | CAAGCGAUGAUGACUCUAATT against RASGRF2 | inactive: -0.225
55 | GGGACGAUUGUAUCAAGUATT against SLC27A4 | inactive: 0.119
56 | GGCUUUUGGUUGUACUGCUTT against SLC27A6 | inactive: -0.172
57 | ACAUGGACAAUGCCGCAGATT against HSPBP1 | inactive: 0.368
58 | ACAGCAUUUUACCACCCUATT against CHI3L1 | inactive: 0.145
59 | GGAAAUACCGUAUAAAACUTT against ASB2 | inactive: -0.825
60 | GAUGGAUGUUCUACUGAAATT against ORC5L | inactive: -0.126
61 | CAGCUUCAUUUAGAGUACATT against CSNK1G1 | inactive: -0.255
62 | CCAGCGAUGUAAUCGAAAATT against FABP6 | inactive: 0.122
63 | ACACUAGUCUUAUCAAAAATT against SOX17 | inactive: -0.46
64 | GAUUAUUGACACUCCCAUATT against PDHB | inactive: -0.478
65 | CGAGAAAGAAUUCCACUUUTT against HOXC5 | inactive: 0.507
66 | GGAUGACUCAAAUUCAGGUTT against CBLL1 | inactive: -0.466
67 | AGCUGGGUAUGGAUGCUUATT against KRT6C | inactive: -0.275
68 | GUCAGAACCCUGUCUUUUATT against PXMP2 | inactive: -0.444
69 | GAAAAACGAUGAAGGAGUATT against MYO16 | inactive: -0.072
